In the supplement of paper PMC7661543:
Differences between knockout arms are mostly noise.

Tested on: MDA-MB-231
Test: relative cell number vs DMSO control (72 h) (% of DMSO); higher = less growth inhibition (more cells)
Method: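 QMAP-Seq: a pool of 5 breast cancer cell lines (ZR-75-1, SKBR3, HCC-38, MDA-MB-231, BT-20), each carrying 12 doxycycline-inducible Cas9 sgRNA perturbations (11 knockouts plus non-targeting sgNT), was treated with compounds for 72 h at four 10-fold doses (10 nM-10 uM or 1 nM-1 uM range). Barcodes were amplified and sequenced, and cell number was interpolated from 293T spike-in standard curves. The result is expressed as % of the median of DMSO wells. Two biological replicates.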

CC1(C)CCC(c2ccc(Cl)cc2)=C(CN2CCN(c3ccc(C(=O)NS(=O)(=O)c4ccc(N[C@H](CCN5CCOCC5)CSc5ccccc5)c(S(=O)(=O)C(F)(F)F)c4)cc3)CC2)C1 [Navitoclax]
Settings	relative cell number
sgRNA knockout: sgATF3, 10 nM	105
sgRNA knockout: sgATF3, 100 nM	108
sgRNA knockout: sgATF3, 1000 nM	91.1
sgRNA knockout: sgATF3, 10000 nM	42.7
sgRNA knockout: sgATF4, 10 nM	85.1
sgRNA knockout: sgATF4, 100 nM	124
sgRNA knockout: sgATF4, 1000 nM	83
sgRNA knockout: sgATF4, 10000 nM	39.9
sgRNA knockout: sgATF6, 10 nM	109
sgRNA knockout: sgATF6, 100 nM	122
sgRNA knockout: sgATF6, 1000 nM	68.7
sgRNA knockout: sgATF6, 10000 nM	40.5
sgRNA knockout: sgATG7, 10 nM	105
sgRNA knockout: sgATG7, 100 nM	97.7
sgRNA knockout: sgATG7, 1000 nM	69.1
sgRNA knockout: sgATG7, 10000 nM	37.4
sgRNA knockout: sgERN1, 10 nM	92.3
sgRNA knockout: sgERN1, 100 nM	105
sgRNA knockout: sgERN1, 1000 nM	101
sgRNA knockout: sgERN1, 10000 nM	32.7
sgRNA knockout: sgHSF1, 10 nM	96
sgRNA knockout: sgHSF1, 100 nM	98.3
sgRNA knockout: sgHSF1, 1000 nM	97.2
sgRNA knockout: sgHSF1, 10000 nM	57.8
sgRNA knockout: sgHSF2, 10 nM	106
sgRNA knockout: sgHSF2, 100 nM	121
sgRNA knockout: sgHSF2, 1000 nM	70.4
sgRNA knockout: sgHSF2, 10000 nM	51.4
sgRNA knockout: sgKEAP1, 10 nM	102
sgRNA knockout: sgKEAP1, 100 nM	121
sgRNA knockout: sgKEAP1, 1000 nM	84.8
sgRNA knockout: sgKEAP1, 10000 nM	54.3
sgRNA knockout: sgNFE2L2, 10 nM	106
sgRNA knockout: sgNFE2L2, 100 nM	79.334
sgRNA knockout: sgNFE2L2, 1000 nM	93.8
sgRNA knockout: sgNFE2L2, 10000 nM	39.5
sgRNA knockout: sgSLC35F2, 10 nM	109
sgRNA knockout: sgSLC35F2, 100 nM	120
sgRNA knockout: sgSLC35F2, 1000 nM	72.9
sgRNA knockout: sgSLC35F2, 10000 nM	64.4
sgRNA knockout: sgXBP1, 10 nM	103
sgRNA knockout: sgXBP1, 100 nM	96.5
sgRNA knockout: sgXBP1, 1000 nM	75.5
sgRNA knockout: sgXBP1, 10000 nM	40.8

Cc1ccc(C(=O)Cn2c3c(sc2=N)CCCC3)cc1 [PifithrinAlpha]
Settings	relative cell number
sgRNA knockout: sgATF3, 10 nM	89.6
sgRNA knockout: sgATF3, 100 nM	88.5
sgRNA knockout: sgATF3, 1000 nM	89.5
sgRNA knockout: sgATF3, 10000 nM	73.4
sgRNA knockout: sgATF4, 10 nM	78.6
sgRNA knockout: sgATF4, 100 nM	81.6
sgRNA knockout: sgATF4, 1000 nM	113
sgRNA knockout: sgATF4, 10000 nM	37.8
sgRNA knockout: sgATF6, 10 nM	110
sgRNA knockout: sgATF6, 100 nM	76
sgRNA knockout: sgATF6, 1000 nM	79.4
sgRNA knockout: sgATF6, 10000 nM	69.2
sgRNA knockout: sgATG7, 10 nM	71.1
sgRNA knockout: sgATG7, 100 nM	88
sgRNA knockout: sgATG7, 1000 nM	88.2
sgRNA knockout: sgATG7, 10000 nM	60.6
sgRNA knockout: sgERN1, 10 nM	85.5
sgRNA knockout: sgERN1, 100 nM	69.5
sgRNA knockout: sgERN1, 1000 nM	117
sgRNA knockout: sgERN1, 10000 nM	67.5
sgRNA knockout: sgHSF1, 10 nM	100
sgRNA knockout: sgHSF1, 100 nM	91.3
sgRNA knockout: sgHSF1, 1000 nM	81.3
sgRNA knockout: sgHSF1, 10000 nM	80.4
sgRNA knockout: sgHSF2, 10 nM	95.1
sgRNA knockout: sgHSF2, 100 nM	78
sgRNA knockout: sgHSF2, 1000 nM	88.3
sgRNA knockout: sgHSF2, 10000 nM	84.2
sgRNA knockout: sgKEAP1, 10 nM	96.2
sgRNA knockout: sgKEAP1, 100 nM	79.7
sgRNA knockout: sgKEAP1, 1000 nM	98.2
sgRNA knockout: sgKEAP1, 10000 nM	61
sgRNA knockout: sgNFE2L2, 10 nM	103
sgRNA knockout: sgNFE2L2, 100 nM	80
sgRNA knockout: sgNFE2L2, 1000 nM	97.72
sgRNA knockout: sgNFE2L2, 10000 nM	58.4
sgRNA knockout: sgSLC35F2, 10 nM	79.1
sgRNA knockout: sgSLC35F2, 100 nM	68.4
sgRNA knockout: sgSLC35F2, 1000 nM	87.2
sgRNA knockout: sgSLC35F2, 10000 nM	59.9
sgRNA knockout: sgXBP1, 10 nM	89.8
sgRNA knockout: sgXBP1, 100 nM	95.5
sgRNA knockout: sgXBP1, 1000 nM	89.2
sgRNA knockout: sgXBP1, 10000 nM	65

COC(=O)/C=C/C(=O)OC [DimethylFumarate]
Settings	relative cell number
sgRNA knockout: sgATF3, 10 nM	87.6
sgRNA knockout: sgATF3, 100 nM	108
sgRNA knockout: sgATF3, 1000 nM	102
sgRNA knockout: sgATF3, 10000 nM	104
sgRNA knockout: sgATF4, 10 nM	99.25
sgRNA knockout: sgATF4, 100 nM	94.7
sgRNA knockout: sgATF4, 1000 nM	109
sgRNA knockout: sgATF4, 10000 nM	74.9
sgRNA knockout: sgATF6, 10 nM	106
sgRNA knockout: sgATF6, 100 nM	101
sgRNA knockout: sgATF6, 1000 nM	112
sgRNA knockout: sgATF6, 10000 nM	86.2
sgRNA knockout: sgATG7, 10 nM	111
sgRNA knockout: sgATG7, 100 nM	105
sgRNA knockout: sgATG7, 1000 nM	89.2
sgRNA knockout: sgATG7, 10000 nM	96.9
sgRNA knockout: sgERN1, 10 nM	94
sgRNA knockout: sgERN1, 100 nM	93.3
sgRNA knockout: sgERN1, 1000 nM	87.8
sgRNA knockout: sgERN1, 10000 nM	88.1
sgRNA knockout: sgHSF1, 10 nM	79.1
sgRNA knockout: sgHSF1, 100 nM	90.3
sgRNA knockout: sgHSF1, 1000 nM	102
sgRNA knockout: sgHSF1, 10000 nM	108
sgRNA knockout: sgHSF2, 10 nM	90.5
sgRNA knockout: sgHSF2, 100 nM	90.4
sgRNA knockout: sgHSF2, 1000 nM	95.9
sgRNA knockout: sgHSF2, 10000 nM	72.5
sgRNA knockout: sgKEAP1, 10 nM	78.9
sgRNA knockout: sgKEAP1, 100 nM	79.5
sgRNA knockout: sgKEAP1, 1000 nM	87.7
sgRNA knockout: sgKEAP1, 10000 nM	96.8
sgRNA knockout: sgNFE2L2, 10 nM	80.6
sgRNA knockout: sgNFE2L2, 100 nM	103
sgRNA knockout: sgNFE2L2, 1000 nM	84.5
sgRNA knockout: sgNFE2L2, 10000 nM	103
sgRNA knockout: sgSLC35F2, 10 nM	102
sgRNA knockout: sgSLC35F2, 100 nM	91.8
sgRNA knockout: sgSLC35F2, 1000 nM	109
sgRNA knockout: sgSLC35F2, 10000 nM	94.7
sgRNA knockout: sgXBP1, 10 nM	93.1
sgRNA knockout: sgXBP1, 100 nM	89.91
sgRNA knockout: sgXBP1, 1000 nM	81.9
sgRNA knockout: sgXBP1, 10000 nM	94.9
